Test results published in patent publication US20240299504A1, “COMPOSITIONS AND METHODS FOR TREATING ALZHEIMERS DISEASE” (priority 2023, published 2024).
These are yes or no findings as the source states them, for the method shown. Some binding calls cover weakened binding; strength is not graded here.

Protein sequences, listed by entry. Tags and fused reporters are not part of them. Residues count along the entry.
UniProt P41593, residues 27-591: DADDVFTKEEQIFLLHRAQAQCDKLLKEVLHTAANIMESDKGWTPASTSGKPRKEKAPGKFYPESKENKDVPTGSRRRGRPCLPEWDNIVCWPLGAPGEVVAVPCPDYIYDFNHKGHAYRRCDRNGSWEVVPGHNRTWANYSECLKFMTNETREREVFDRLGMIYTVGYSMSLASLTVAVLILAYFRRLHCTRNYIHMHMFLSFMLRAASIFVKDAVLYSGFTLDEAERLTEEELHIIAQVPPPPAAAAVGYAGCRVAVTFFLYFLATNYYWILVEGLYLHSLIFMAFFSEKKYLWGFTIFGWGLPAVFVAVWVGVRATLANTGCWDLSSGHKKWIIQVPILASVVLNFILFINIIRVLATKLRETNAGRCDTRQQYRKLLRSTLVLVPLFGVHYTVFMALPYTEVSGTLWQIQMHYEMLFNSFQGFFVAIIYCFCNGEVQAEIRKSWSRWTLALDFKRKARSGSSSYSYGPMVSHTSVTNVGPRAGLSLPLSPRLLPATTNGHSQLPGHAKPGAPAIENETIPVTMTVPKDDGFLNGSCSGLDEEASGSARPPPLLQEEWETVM

Target: PTH receptor (PTH1R), parathyroid hormone type 1 receptor, on mouse astrocytes (mouse) (UniProt P41593)
Assay: in vivo tail-vein injection of Biotin-PTH1-34, anti-biotin immunofluorescence of brain sections co-stained with cell markers; PTH1R expression in astrocytes by RNAscope and Western blot

binding: binds
Binder: SVSEIQLMHNLGKHLNSMERVEWLRKKLQDVHNF (peptide, UniProt P01270 32-65, looked up, biotin label (position not given)) [Biotin-labeled PTH1-34 (ANASPEC, cat #AS-20690)]
